Reference: article PMC10606488, “Usnic Acid Derivatives Inhibit DNA Repair Enzymes Tyrosyl-DNA Phosphodiesterases 1 and 2 and Act as Potential Anticancer Agents” (Genes, 2023)

Tested on: HEK293FT Tdp2−/− cells
Experiment: Effect of compounds on the cytotoxicity of etoposide, Tdp2 knockout cells
Assay type: cell-based, human
Details: 10 μM compound; points 0.4, 1.6 and 6 μM etoposide compared; Mann–Whitney test, p = 0.05

| SMILES | etoposide concentrations at which metabolic activity of WT and Tdp2−/− cells differs significantly |
| --- | --- |
| CC(=O)C1=C(O)C=C2Oc3c(-c4csc(NN=Cc5ccc[nH]5)n4)c(O)c(C)c(O)c3C2(C)C1=O (single isomer, unassigned; (-)) [(−)-11a] | at 1.6 μM |
| CC(=O)C1=C(O)C=C2Oc3c(-c4csc(NN=Cc5c[nH]c6ccccc56)n4)c(O)c(C)c(O)c3C2(C)C1=O (single isomer, unassigned; (-)) [(−)-11d] | significant at all three points |
| COc1ccc(C=NNc2nc(-c3c(O)c(C)c(O)c4c3OC3=CC(O)=C(C(C)=O)C(=O)C34C)cs2)cc1CN1CCN(c2ccc(F)cc2)CC1 (single isomer, unassigned; (-)) [(−)-11h] | at points of 1.6 and 6 μM |
